Assay: peptide synthesis
Conditions: for step yield: late stage modification step; for conjugation yield: conjugation step

Substance | step yield | conjugation yield
AF HPA-Boc-L-Alanine | 75 % yield | 
LTVSPNY-Adoa- PEG12-Thioester |  | 51 % yield
XMT-A4 Dimethyl-diaminoethyl-PABA-Val Cit-NH2 |  | 54% yield
XMT-A4 N-Boc-D-valine ester | 50% yield | 
XMT-A4-dimethyldiamino ethyl-PABA-Val Cit-Maleimide |  | 46% yield

From patent EP2928504B1 (Mersana Therapeutics, Inc., priority 2012, dated 2014)
